Results of single-concentration screens

Protein sequences, listed by entry. Tags and fused reporters are not part of them. Residues count along the entry.
UniProt Q8IDJ8, 1-583: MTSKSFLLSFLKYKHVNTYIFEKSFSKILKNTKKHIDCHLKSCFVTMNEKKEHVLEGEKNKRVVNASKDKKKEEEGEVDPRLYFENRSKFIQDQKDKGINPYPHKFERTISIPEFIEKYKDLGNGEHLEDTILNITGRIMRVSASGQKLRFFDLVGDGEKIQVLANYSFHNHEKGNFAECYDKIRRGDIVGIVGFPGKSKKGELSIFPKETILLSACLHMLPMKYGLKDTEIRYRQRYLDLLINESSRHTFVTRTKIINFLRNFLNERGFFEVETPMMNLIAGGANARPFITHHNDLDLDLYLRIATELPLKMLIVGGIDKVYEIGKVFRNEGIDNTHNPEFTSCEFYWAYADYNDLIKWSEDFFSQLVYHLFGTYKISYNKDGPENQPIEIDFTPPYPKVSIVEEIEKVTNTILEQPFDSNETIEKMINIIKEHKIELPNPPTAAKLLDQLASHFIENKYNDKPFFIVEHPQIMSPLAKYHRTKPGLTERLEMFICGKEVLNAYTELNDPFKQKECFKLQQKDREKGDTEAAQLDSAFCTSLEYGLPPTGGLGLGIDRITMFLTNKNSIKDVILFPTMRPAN
UniProt I6X8D2, whole entry: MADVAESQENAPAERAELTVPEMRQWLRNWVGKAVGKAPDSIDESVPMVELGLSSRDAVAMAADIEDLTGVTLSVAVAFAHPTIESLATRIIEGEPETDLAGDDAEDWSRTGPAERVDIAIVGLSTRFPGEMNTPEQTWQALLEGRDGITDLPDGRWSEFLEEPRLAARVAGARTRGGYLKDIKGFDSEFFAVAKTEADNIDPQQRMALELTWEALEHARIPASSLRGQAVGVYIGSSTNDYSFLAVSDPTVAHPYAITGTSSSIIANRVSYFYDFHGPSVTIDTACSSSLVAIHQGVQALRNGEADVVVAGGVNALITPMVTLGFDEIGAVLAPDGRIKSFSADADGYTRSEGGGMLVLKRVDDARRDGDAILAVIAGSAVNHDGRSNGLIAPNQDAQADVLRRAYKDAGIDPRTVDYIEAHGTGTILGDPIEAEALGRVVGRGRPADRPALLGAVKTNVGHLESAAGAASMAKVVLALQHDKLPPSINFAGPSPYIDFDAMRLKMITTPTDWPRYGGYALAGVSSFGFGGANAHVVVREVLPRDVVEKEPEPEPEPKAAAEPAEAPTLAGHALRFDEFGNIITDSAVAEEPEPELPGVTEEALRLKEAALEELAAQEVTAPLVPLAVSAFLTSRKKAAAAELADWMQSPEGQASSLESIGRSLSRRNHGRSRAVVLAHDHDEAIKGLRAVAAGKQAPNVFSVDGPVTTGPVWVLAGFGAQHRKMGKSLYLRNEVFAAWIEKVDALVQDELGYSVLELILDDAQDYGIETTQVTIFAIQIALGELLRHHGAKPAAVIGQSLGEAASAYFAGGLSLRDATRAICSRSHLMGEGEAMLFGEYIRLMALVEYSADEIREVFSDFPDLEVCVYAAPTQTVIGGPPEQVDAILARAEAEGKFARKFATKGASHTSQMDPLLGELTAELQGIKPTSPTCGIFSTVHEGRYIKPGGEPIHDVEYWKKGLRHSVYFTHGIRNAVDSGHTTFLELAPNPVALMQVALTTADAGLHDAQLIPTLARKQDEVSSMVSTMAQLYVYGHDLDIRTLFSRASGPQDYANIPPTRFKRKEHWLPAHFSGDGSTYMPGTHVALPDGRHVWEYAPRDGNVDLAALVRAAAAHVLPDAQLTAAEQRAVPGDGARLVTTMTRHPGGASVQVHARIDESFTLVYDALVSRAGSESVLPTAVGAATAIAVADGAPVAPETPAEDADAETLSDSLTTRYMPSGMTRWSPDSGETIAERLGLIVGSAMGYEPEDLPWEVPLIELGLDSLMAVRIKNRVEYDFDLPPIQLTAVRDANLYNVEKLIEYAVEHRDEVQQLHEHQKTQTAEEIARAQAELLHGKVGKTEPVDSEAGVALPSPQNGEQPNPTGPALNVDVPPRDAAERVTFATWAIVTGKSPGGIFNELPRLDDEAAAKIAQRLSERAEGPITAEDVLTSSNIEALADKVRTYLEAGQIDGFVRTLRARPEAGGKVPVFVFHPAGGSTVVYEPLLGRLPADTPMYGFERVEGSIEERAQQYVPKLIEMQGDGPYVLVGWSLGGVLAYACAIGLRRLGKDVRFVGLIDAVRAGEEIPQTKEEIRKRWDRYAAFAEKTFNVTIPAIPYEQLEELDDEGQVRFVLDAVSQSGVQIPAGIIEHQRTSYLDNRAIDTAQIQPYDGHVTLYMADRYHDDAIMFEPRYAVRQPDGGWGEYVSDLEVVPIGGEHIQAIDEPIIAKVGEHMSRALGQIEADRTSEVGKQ
UniProt P9WNZ1, whole entry: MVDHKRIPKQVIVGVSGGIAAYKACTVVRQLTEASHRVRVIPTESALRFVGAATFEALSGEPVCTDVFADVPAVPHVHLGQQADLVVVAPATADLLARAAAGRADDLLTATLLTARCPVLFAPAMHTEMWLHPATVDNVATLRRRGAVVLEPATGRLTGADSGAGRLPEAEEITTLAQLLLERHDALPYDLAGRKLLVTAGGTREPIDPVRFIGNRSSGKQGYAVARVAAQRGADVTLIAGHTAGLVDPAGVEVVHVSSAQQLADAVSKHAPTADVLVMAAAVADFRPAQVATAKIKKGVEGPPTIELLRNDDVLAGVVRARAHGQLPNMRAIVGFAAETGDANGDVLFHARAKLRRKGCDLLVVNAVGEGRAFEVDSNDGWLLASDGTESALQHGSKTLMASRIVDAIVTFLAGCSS
UniProt Q4DA54, 1-478: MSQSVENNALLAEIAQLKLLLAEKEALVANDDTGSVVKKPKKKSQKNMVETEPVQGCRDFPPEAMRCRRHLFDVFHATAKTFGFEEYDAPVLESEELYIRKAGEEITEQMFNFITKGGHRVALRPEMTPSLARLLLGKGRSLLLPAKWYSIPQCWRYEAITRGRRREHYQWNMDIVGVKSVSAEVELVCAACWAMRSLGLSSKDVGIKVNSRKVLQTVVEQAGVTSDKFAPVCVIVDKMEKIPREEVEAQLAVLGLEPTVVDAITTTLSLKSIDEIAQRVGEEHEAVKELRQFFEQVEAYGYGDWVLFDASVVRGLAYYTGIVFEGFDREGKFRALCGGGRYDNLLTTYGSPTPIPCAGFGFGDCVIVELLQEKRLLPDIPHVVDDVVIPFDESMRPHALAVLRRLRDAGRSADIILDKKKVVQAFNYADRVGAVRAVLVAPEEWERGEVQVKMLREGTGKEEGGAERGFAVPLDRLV
UniProt P9WFT3, whole entry: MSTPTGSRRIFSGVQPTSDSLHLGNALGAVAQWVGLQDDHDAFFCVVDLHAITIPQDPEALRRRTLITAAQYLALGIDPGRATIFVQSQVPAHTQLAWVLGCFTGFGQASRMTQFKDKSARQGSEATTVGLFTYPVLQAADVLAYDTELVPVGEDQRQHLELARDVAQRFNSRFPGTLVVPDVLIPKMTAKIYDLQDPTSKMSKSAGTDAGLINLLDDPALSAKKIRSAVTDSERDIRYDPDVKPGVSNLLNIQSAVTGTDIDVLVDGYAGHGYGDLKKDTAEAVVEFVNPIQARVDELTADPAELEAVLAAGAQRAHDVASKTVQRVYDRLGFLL
UniProt P9WPC5, whole entry: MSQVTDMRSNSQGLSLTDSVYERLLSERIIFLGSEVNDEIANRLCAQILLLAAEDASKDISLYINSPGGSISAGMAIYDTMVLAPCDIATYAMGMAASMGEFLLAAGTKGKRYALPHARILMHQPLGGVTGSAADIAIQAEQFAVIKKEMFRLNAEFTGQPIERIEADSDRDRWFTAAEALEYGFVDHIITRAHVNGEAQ
UniProt P9WPC3, whole entry partner: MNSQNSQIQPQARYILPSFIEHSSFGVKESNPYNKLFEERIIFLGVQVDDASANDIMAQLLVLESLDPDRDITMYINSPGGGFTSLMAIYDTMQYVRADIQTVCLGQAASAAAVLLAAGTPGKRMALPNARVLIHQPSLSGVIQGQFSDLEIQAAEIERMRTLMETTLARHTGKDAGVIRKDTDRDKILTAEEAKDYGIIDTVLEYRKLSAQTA

Measurements from “University of Dundee, Small-Polar-MMV Screening Library” (2021), ChEMBL document CHEMBL3988442.

A: 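Enzyme assay of the cytosolic lysyl-tRNA synthetase in 384-well plates, read by luminescence. Target: Lysine-tRNA ligase, Plasmodium falciparum 3D7 (UniProt Q8IDJ8). Tested at 30 µM. Direction is inferred from only a few compounds that gave an IC50; most scored high, so higher reads as stronger inhibition. Of about 69,000 compounds tested this way, about 49 (0.071%) reached 50% or more in at least one test.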
B: 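Polyketide synthase Pks13, Mycobacterium tuberculosis (UniProt I6X8D2). Enzyme assay of the thioesterase domain of polyketide synthase 13; the read-out is not stated. Compounds at 30 µM. The record gives no direction; the compounds picked for IC50 retests had high values, so higher reads as stronger inhibition. Size under these conditions: about 67,000 compounds, about 300 of them at 50% or above in at least one test.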
C: 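Coenzyme A biosynthesis protein CoaBC, Mycobacterium tuberculosis (UniProt P9WNZ1). Enzyme assay of CoaBC with a phosphate dye (Biomol Green) read at 650 nm. Tested at 30 µM. Direction is inferred from only a few compounds that gave an IC50; most scored high, so higher reads as stronger inhibition. Most strong results did not repeat in a second test. Size under these conditions: about 67,000 compounds, about 40 of them at 50% or above in at least one test.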
D: 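Enzyme assay of histidyl-tRNA synthetase; the read-out is not stated. Target: Histidine-tRNA ligase, Trypanosoma cruzi CL Brener (UniProt Q4DA54). Tested at 30 µM. The record gives no direction; compounds that gave an IC50 in retests scored well above the rest, so higher reads as stronger inhibition. Of about 69,000 compounds tested this way, about 31 (0.045%) reached 50% or more in at least one test.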
E: 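Enzyme assay of tryptophanyl-tRNA synthetase; the read-out is not stated. Target: Tryptophan-tRNA ligase, Mycobacterium tuberculosis (UniProt P9WFT3). Compounds at 10 µM. Higher most likely means stronger inhibition; the record gives no direction and few retests gave an IC50. About 65,000 compounds were tested under these conditions; 0.098% (about 64) showed 50% or more at least once.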
F: 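Protease assay of ClpP1P2, read by the AMC dye that it sets free. Target: ClpP1P2, Mycobacterium tuberculosis (UniProt P9WPC5 and UniProt P9WPC3). Concentration: 50 µM. Direction is inferred from only a few compounds that gave an IC50; most scored high, so higher reads as stronger inhibition. Most other retested compounds had strongly negative values. Of about 69,000 compounds tested this way, about 10 (0.015%) reached 50% or more in at least one test.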

The filed quantity is “Percent Effect” (%).
The record does not define 0% and 100%; most values in the screen are far below 50% and negative numbers occur (in some assays of this library far below -100).
Compounds were drawn at random from those tested, without regard to their results.

* CC(O)CN1CCN(C(=O)c2ccc(CN(C)C)cc2)CC1 (stereo unspecified) | A: -0.6888%; B: -12.53%; C: 3.354%; D: -0.8596%; E: -7.903%; F: 7.994%
* CCN1CCN(C)C(=O)C12CCN(C(=O)Cc1ccccn1)CC2 | A: 4.694%; B: 9.169%; C: 1.818%; D: 6.145%; F: -2.439%
* CCCC(=O)NC(Cc1ccc(C)cc1)c1ccccn1 (stereo unspecified) | A: 0.9698%; B: 41.99%; C: 1.091%; D: 0%; E: -3.636%; F: -23.56%
* COc1ccc(CC(=O)N2CCCC(Cn3cc(CN)nn3)C2)cc1 (stereo unspecified) | A: -3.055%; B: 4.993%; C: -0.9756%; D: 12.75%; E: -2.558%; F: -20.53%
* Cc1cc(CC(=O)N2CCN(CC(C)C)[C@@H]3CS(=O)(=O)C[C@@H]32)ccc1F | A: -0.9024%; B: -18.6%; C: 2.17%; D: 7.407%; E: 5.448%; F: 2.969%
* COc1ccc(OC)c(Sc2ncccc2C(=O)NCC2CC2)c1 | A: 2.332%; B: -31.35%; C: -1.214%; D: 6.818%; F: 5.87%
* CCN(Cc1ccncc1)Cc1cn(-c2ccccc2)nn1 | A: 0.1701%; B: -13.46%; C: -3.226%; D: 9.827%; E: 1.967%; F: -7.723%
* CC(=O)c1cc(C(=O)N2Cc3ccccc3OC3(CCOCC3)C2)cs1 | A: 1.713%; B: -0.2206%; C: -1.946%; D: 2.239%; E: 1.449%; F: -17.7%
* CC(=O)N1CCC(c2ccnc(Nc3ccc(C)cn3)n2)C1 (stereo unspecified) | A: 5.507%; B: -13.4%; C: 2.941%; D: 5.319%; F: 18.14%
* O=C1C(NCc2ccccc2O)CCN1Cc1ccccc1 (stereo unspecified) | A: 1.944%; B: -8.613%; C: 1.966%; D: 7.407%; E: -1.282%; F: -4.847%
* O=C(C1CC1)N1CCCC(C2=Nc3ccccc3S(=O)(=O)N2)C1 (stereo unspecified) | A: 0.7333%; B: 1.506%; C: -10.41%; D: 0.565%; E: -6.332%; F: -15.03%
* CCOCC(=O)NCCc1nc(C)cc(C(F)(F)F)n1 | A: 3.095%; B: -4.131%; C: -3.39%; D: 13%; E: 4.744%; F: -22.81%
* CN1CCNC(=O)C12CCN(Cc1ccco1)CC2 | A: 9.276%; B: -1.922%; C: 0.6085%; D: 9.244%; E: -3.438%; F: 5.496%
* Cc1ccc(-c2noc(C3CCN3C(=O)c3c(C)noc3C)n2)s1 (stereo unspecified) | A: 0.8869%; B: -2.108%; C: 2.663%; D: 0.565%; E: 3.198%; F: -4.869%
* CSCC[C@H](NC(=O)CCn1ccc2c(Cl)cccc21)C(=O)O | A: 5.164%; B: -10%; C: 1.515%; D: 7.602%; E: 3.711%; F: 4.113%
* Cc1cc(CN(C)C2CCCN(Cc3noc(C)n3)C2)no1 (stereo unspecified) | A: -2.818%; B: 3.39%; C: -4.563%; D: 0.578%; E: 4.655%; F: 4.544%

Repeated from the top, 2 entries:

CC(O)CN1CCN(C(=O)c2ccc(CN(C)C)cc2)CC1 (stereo unspecified) gave A: -0.6888%; B: -12.53%; C: 3.354%; D: -0.8596%; E: -7.903%; F: 7.994%.
CCN1CCN(C)C(=O)C12CCN(C(=O)Cc1ccccn1)CC2 gave A: 4.694%; B: 9.169%; C: 1.818%; D: 6.145%; F: -2.439%.